## Melanoma cell counts after drug treatment

Compounds and concentrations:
KU-0063794 (0.02 µM): COc1ccc(-c2ccc3c(N4CCOCC4)nc(N4C[C@@H](C)O[C@@H](C)C4)nc3n2)cc1CO
cisplatin (1.6 µM): N.N.[Cl][Pt][Cl]
BI-78D3 (0.2 µM): O=c1[nH]nc(Sc2ncc([N+](=O)[O-])s2)n1-c1ccc2c(c1)OCCO2
tanespimycin (0.002 µM): C=CCNC1=C2C[C@@H](C)C[C@H](OC)[C@H](O)[C@@H](C)/C=C(\C)[C@H](OC(N)=O)[C@@H](OC)/C=C\C=C(/C)C(=O)NC(=CC1=O)C2=O
XAV939 (2 µM): Oc1nc(-c2ccc(C(F)(F)F)cc2)nc2c1CSCC2
A-769662 (2 µM): N#Cc1c(O)c2c(-c3ccc(-c4ccccc4O)cc3)csc2[nH]c1=O
JZL184 (1 µM): O=C(Oc1ccc([N+](=O)[O-])cc1)N1CCC(C(O)(c2ccc3c(c2)OCO3)c2ccc3c(c2)OCO3)CC1
crizotinib (0.2 µM): C[C@@H](Oc1cc(-c2cnn(C3CCNCC3)c2)cnc1N)c1c(Cl)ccc(F)c1Cl
pioglitazone (2 µM): CCc1ccc(CCOc2ccc(CC3SC(=O)NC3=O)cc2)nc1 (stereo not shown)

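Human melanoma cell lines in 1,536-well plates were treated with a pair of drugs for 72 h, then fixed, stained and imaged. Each value is the count of nuclei relative to DMSO-treated wells, in %, so that 100 equals the control. Concentrations were fixed for each drug; these are the lower of two levels, a fifth of the higher. These are primary screening values without error estimates.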 This is part of the screen, not chosen by result. An entry leaves out what has no value listed here.

For A-769662 + BI-78D3 the values were 501mel: 118; A101D: 106; A2058: 91.0.
For KU-0063794 + A-769662 the values were 501mel: 102; A101D: 107; A2058: 97.6.
For KU-0063794 + BI-78D3 the values were 501mel: 93.7; A101D: 110; A2058: 107.
For BI-78D3 + pioglitazone the values were 501mel: 109; A101D: 114; A2058: 83.2.
For crizotinib + XAV939 the values were 501mel: 104; A101D: 98.8; A2058: 77.0.
For KU-0063794 + tanespimycin the values were A101D: 76.1; A2058: 91.2.
For cisplatin + A-769662 the values were 501mel: 118; A101D: 93.3; A2058: 94.6.
For cisplatin + KU-0063794 the values were 501mel: 112; A101D: 85.3; A2058: 82.0.
For JZL184 + tanespimycin the values were A101D: 86.6; A2058: 98.2.
For JZL184 + cisplatin the values were A101D: 101; A2058: 94.1.
For tanespimycin + pioglitazone the values were A101D: 105; A2058: 104.
For crizotinib + A-769662 the values were 501mel: 67.9; A101D: 102; A2058: 109.
For JZL184 + BI-78D3 the values were 501mel: 85.5; A101D: 99.5; A2058: 101.
For crizotinib + KU-0063794 the values were 501mel: 94.1; A101D: 103; A2058: 99.9.
For crizotinib + JZL184 the values were 501mel: 90.9; A101D: 104; A2058: 99.6.
For pioglitazone + cisplatin the values were 501mel: 40.2; A101D: 62.5; A2058: 97.1.
For crizotinib + pioglitazone the values were 501mel: 92.7; A101D: 89.6; A2058: 102.
For tanespimycin + XAV939 the values were A101D: 92.1; A2058: 88.9.
For XAV939 + cisplatin the values were 501mel: 100; A101D: 79.6; A2058: 76.0.

Some entries from above, unchanged:

{"pair": "KU-0063794 + A-769662", "501mel": 102, "A101D": 107, "A2058": 97.6}
{"pair": "cisplatin + A-769662", "501mel": 118, "A101D": 93.3, "A2058": 94.6}

Source: doi:10.1371/journal.pone.0140310, primary screening data, rounded.